Drawing on patent publication US5079341 (dated 1992), this text covers step yield and cyclisation yield for 40 substances.

A short description of one data set: general procedure: solution-phase peptide synthesis; DppCl / NMM (mixed anhydride). The following applies: coupling step.
Substance “Z-(Me)Thr(Bu^t)-Nva-Sar-(Me)Leu-Val-(Me)Leu-Ala-D-Ala-(Me)Leu-(Me)Leu-(Me)Val-OBu^t” registered a step yield of 65%.

“Z-(Me)Ser(Bu^t)-Nle-Sar-(Me)Leu-Val-(Me)Leu-Ala-D-Ala-(Me)Leu-(Me)Leu-(Me)Val-OBu^t” gave a step yield of 75%.

The substance “Z-Abu-Sar-(Me)Leu-Val-(Me)Leu-Ala-D-Ala-(Me)Leu-(Me)Leu-(Me)Val-OBu^t” gave a step yield of 90%.

Substance “Z-Val-(Me)Leu-Ala-D-Ala-(Me)Leu-(Me)Leu-(Me)Val-OBu^t” displayed a step yield of 75%.

“Z-(Me)Thr(Bu^t)-Nle-Sar-(Me)Leu-Val-(Me)Leu-Ala-D-Ala-(Me)Leu-(Me)Leu-(Me)Val-OBu^t” had a step yield of 64%.

With “Z-(Me)Ser(Bu^t)-Thr(Bu^t)-Sar-(Me)Leu-Val-(Me)Leu-Ala-D-Ala-(Me)Leu-(Me)Leu-(Me)Val-OBu^t”, the step yield is on record as 52%.

Turning to Z-D-Ala-(Me)Leu-(Me)Leu-(Me)Val-OBu^t, the step yield is 80%.

For “Z-(Me)Ser(Bu^t)-Abu-Sar-(Me)Leu-Val-(Me)Leu-Ala-D-Ala-(Me)Leu-(Me)Leu-(Me)Val-OBu^t”, the step yield is given as 41%.

For “Fmoc-(Me)Thr(Bu^t)-Abu-Sar-(Me)Leu-Val-(Me)Leu-Ala-D-Ala-(Me)Leu-(Me)Leu-(Me)Val-OBu^t”, the step yield came out at 69%.

“Z-Nle-Sar-(Me)Leu-Val-(Me)Leu-Ala-D-Ala-(Me)Leu-(Me)Leu-(Me)Val-OBu^t” returned a step yield of 77%.

Substance “Z-Thr(Bu^t)-Sar-(Me)Leu-Val-(Me)Leu-Ala-D-Ala-(Me)Leu-(Me)Leu-(Me)Val-OBu^t” yielded a step yield of 48%.

The substance “Z-Ala-D-Ala-(Me)Leu-(Me)Leu-(Me)Val-OBu^t” yielded a step yield of 88%.

“Z-Sar-(Me)Leu-Val-(Me)Leu-Ala-D-Ala-(Me)Leu-(Me)Leu-(Me)Val-OBu^t” displayed a step yield of 64%.

In the case of “Z-(Me)Ser(Bu^t)-Nva-Sar-(Me)Leu-Val-(Me)Leu-Ala-D-Ala-(Me)Leu-(Me)Leu-(Me)Val-OBu^t”, the step yield stood at 73%.

Turning to “Z-(Me)Thr(Bu^t)-Abu-Sar-(Me)Leu-Val-(Me)Leu-Ala-D-Ala-(Me)Leu-(Me)Leu-(Me)Val-OBu^t”, the step yield is listed as 86%.

The data set is the same for the next values; noted with them: coupling step; run 1.
With “Z-(Me)Leu-Val-(Me)Leu-Ala-D-Ala-(Me)Leu-(Me)Leu-(Me)Val-OBu^t”, the step yield is given as 27%.

The same data set, now with this note: coupling step; run 2.
For “Z-(Me)Leu-Val-(Me)Leu-Ala-D-Ala-(Me)Leu-(Me)Leu-(Me)Val-OBu^t”, the step yield is on record as 94%.

The data set is the same for the next values; noted with them: cyclisation step.
The substance “Cyclo-[(Me)Thr-Nle-Sar-(Me)Leu-Val-(Me)Leu-Ala-D-Ala-(Me)Leu-(Me)Leu-(Me)Val]” displayed a cyclisation yield of 14% yield.

Consider “Cyclo-[(Me)Ser-Abu-Sar-(Me)Leu-Val-(Me)Leu-Ala-D-Ala-(Me)Leu-(Me)Leu-(Me)Val]”, for which the cyclisation yield came to 15%.

Regarding “Cyclo[Hyp-Abu-Sar-(Me)Leu-Val-(Me)Leu-Ala-D-Ala-(Me)Leu-(Me)Leu-(Me)Val]”, the cyclisation yield is on record as 30%.

Regarding “Cyclo-[(Me)Ser-Nva-Sar-(Me)Leu-Val-(Me)Leu-Ala-D-Ala-(Me)Leu-(Me)Leu-(Me)Val]”, the cyclisation yield came to 20% yield.

The substance “Cyclo-[(Me)Ser-Nle-Sar-(Me)Leu-Val-(Me)Leu-Ala-D-Ala-(Me)Leu-(Me)Leu-(Me)Val]” came in with a cyclisation yield of 16%.

The same data set, now with this note: late stage modification step.
“Z-Hyp-Abu-Sar-(Me)Leu-Val-(Me)Leu-Ala-D-Ala-(Me)Leu-(Me)Leu-(Me)Val-OH”: the step yield amounted to 65%.

As to “Z-(Me)Ser-Thr-Sar-(Me)Leu-Val-(Me)Leu-Ala-D-Ala-(Me)Leu-(Me)Leu-(Me)Val-OH”, the step yield was 50%.

The substance “H-(Me)Ser-Nle-Sar-(Me)Leu-Val-(Me)Leu-Ala-D-Ala-(Me)Leu-(Me)Leu-(Me)Val-OH” showed a step yield of 81%.

As to H-D-Ala-(Me)Leu-(Me)Leu-(Me)Val-OBu^t, the step yield was determined as 93%.

“Z-(Me)Ser-Nle-Sar-(Me)Leu-Val-(Me)Leu-Ala-D-Ala-(Me)Leu-(Me)Leu-(Me)Val-OH” returned a step yield of 75%.

As to “H-Thr(Bu^t)-Sar-(Me)Leu-Val-(Me)Leu-L-Ala-D-Ala-(Me)Leu-(Me)Leu-(Me)Val-OBu^t”, the step yield was found to be 88%.

In turn, “H-(Me)Ser-Nva-Sar-(Me)Leu-Val-(Me)Leu-Ala-D-Ala-(Me)Leu-(Me)Leu-(Me)Val-OH” registered a step yield of 83%.

Consider “H-(Me)Thr-Nle-Sar-(Me)Leu-Val-(Me)Leu-Ala-D-Ala-(Me)Leu-(Me)Leu-(Me)Val-OH”, for which the step yield was 89%.

For “H-Nva-Sar-(Me)Leu-Val-(Me)Leu-Ala-D-Ala-(Me)Leu-(Me)Leu-(Me)Val-OBu^t”, the step yield is listed as 94%.

“Z-Hyp-Nle-Sar-(Me)Leu-Val-(Me)Leu-Ala-D-Ala-(Me)Leu-(Me)Leu-(Me) Val-OH” showed a step yield of 77%.

Substance “H-Sar-(Me)Leu-Val-(Me)Leu-Ala-D-Ala-(Me)Leu-(Me)Leu-(Me)Val-OBu^t” registered a step yield of 97%.

The substance “H-Abu-Sar-(Me)Leu-Val-(Me)Leu-Ala-D-Ala-(Me)Leu-(Me)Leu-(Me)Val-OBu^t” came in with a step yield of 97%.

With “H-Nle-Sar-(Me)Leu-Val-(Me)Leu-Ala-D-Ala-(Me)Leu-(Me)Leu-(Me)Val-OBu^t”, the step yield is listed as 95%.

“H-Hyp-Nle-Sar-(Me)Leu-Val-(Me)Leu-Ala-D-Ala-(Me)Leu-(Me)Leu-(Me)Val-OH” yielded a step yield of 79%.

Substance “Z-(Me)Ser-Nva-Sar-(Me)Leu-Val-(Me)Leu-Ala-D-Ala-(Me)Leu-(Me)Leu-(Me)Val-OH” yielded a step yield of 60%.

Take “Z-(Me)Thr-Nle-Sar-(Me)Leu-Val-(Me)Leu-Ala-D-Ala-(Me)Leu-(Me)Leu-(Me)Val-OH”: the step yield is recorded as 60%.

“H-(Me)Ser-Thr-Sar-(Me) Leu-Val-(Me)Leu-Ala-D-Ala-(Me)Leu-(Me)Leu-(Me)Val-OH” returned a step yield of 95%.

“H-Hyp-Abu-Sar-(Me)Leu-Val-(Me)Leu-Ala-D-Ala-(Me)Leu-(Me)Leu-(Me)Val-OH”: the step yield is 96%.

Consider “Z-(Val-(Me)Leu-Ala-D-Ala-(Me)Leu-(Me)Leu-(Me)Val-OBu^t”, for which the step yield is recorded as 79%.
